The nature of this series: general procedure: solution-phase peptide synthesis; DEPC/DIEA; HATU/DIEA or pyridine. Conditions: for conjugation yield: conjugation step.

Regarding 4-Abz-Val-Dil-Dap-Phe-OtBu, the step yield (late stage modification step) stood at 64% yield.
Take MC-Val-Cit-4-Abz-Val-Dil-Dap-Phe-OMe: the conjugation yield turned out to be 2.8% yield.
Same read-out and setting: to MC-4-Abz-Val-Dil-Dap-Phe-OtBu belongs 42% yield.
Substance Val-Dil-Dap-Phe-OMe came in with a step yield (late stage modification step) of 97% yield.
Regarding MC-Val-Cit-4-Abz-Val-Dil-Dap-Phe, the step yield (late stage modification step) was 91% yield.
Substance MC-Val-Cit-4-Abz-Val-Dil-Dap-Phe-OtBu had a conjugation yield of 53% yield.
The substance Fmoc-4-Abz-Val-Dil-Dap-Phe-OtBu gave a step yield (coupling step) of 48% yield.
Same read-out and setting: to Cbz-Val-Dil-Dap-Phe-OMe belongs 59% yield.
For the setting “late stage modification step, on Val-Dil-Dap-Phe-OMe”, 4-Abz-Val-Dil-Dap-Phe-OMe came in with a step yield of 42% yield.

The values above are taken from US8288352B2 (priority 2004, dated 2012).
